Patent publication US20140342065A1 (priority 2012, published 2014)
At least one compound was matched to its structure with a doubt left.

How the values were obtained:
[1] = system: bacteria and yeast; assay: Agar plates stored with H2S gas 40 ppm (FIG. 11, 104); assay type: cell-based; details: H2S 40 ppm, room temperature or 37° C., day 1-3
Excerpt: Representative samples of foods shown include fruits, and vegetables. […] Control foods were stored in closed containers. The containers were made of aluminum with a plastic lid that snugly fitted onto the container rim. […] The inlet and outlet valves were then closed. Using a H2S gas detector capable of detecting 1 to 500 ppm of H2S, no H2S was detected outside the chamber. […] There is small change in color, consistency, and of the same food group and there is no evidence of growth of yeast in the H2S gas-treated group. Growth of bacteria and yeast was checked by taking samples of food and streaking them over agar. […] Strawberry 80. […] This growth was quite evident on day 5 (arrows, 81). The fruit also lost its consistency and is discolored. […] Banana, 86. Growth of yeast is seen by day 8 in the control group. The fruit also lost its consistency and is discolored. […] A slice of banana 99. […] The fruit also lost its consistency and is discolored. […] Pistachio 101. […] Green bananas 102. Green bananas in each group were used in this experiment. The control bananas ripened, developed a yellow color that still maintained some of their green color on day 8. Tomatoes 103. Green tomatoes in each group were used in this experiment. […] Samples from each fruit were diluted in phosphate buffered saline, pH 7.4. […]

[2] = system: fruits, and vegetables; yeast and/or bacteria; assay: Food preservation with H2S gas 40 ppm in air tight chamber at room temperature (FIG. 11)
[3] = system: strawberry fruit; assay: Rotting index, firmness and external color of strawberry fruit exposed to Hydrogen Sulfide
[4] = system: pigs; details: 2008 study; cited from earlier work
[5] = system: sheep; details: in vivo; cited from earlier work
[6] = system: Banana, Tomato and slices of avocado; yeast and/or bacteria; details: closed environment, room temperature
Excerpt: Representative samples include fruits (Banana), and vegetables (Tomato) and slices of avocado. Experiments were repeated at least four times and each food category included a minimum of six items in each group. The containers were made of gas impermeable Plexiglas that snugly fitted onto the container rim. Fruits were placed on regular kitchen towels that covered the bottom of the containers. Control and experimental group (Exp) of fruits were placed in separate containers. The amount of H2S—H2 gas within the Exp containers varied from 5-15 ppm during the course of exposure. When the level dropped below 5 ppm, the H2 gas was substituted. Experiment was carried out at room temperature for the durations shown. […] Growth of bacteria and yeast was checked by taking samples of food and streaking them over agar. Samples from each fruit were diluted in phosphate buffered saline, pH 7.4. From each sample, 20 microliters was streaked on agar plates and plates were maintained either at room temperature or at 37° C.

[7] = system: rats; details: hypothermia induced by Hydrogen Sulfide for 48 hours; cited from earlier work
[8] = system: fresh cut vegetables and fruits; assay: Fumigation of fresh cut vegetables and fruits with H2S released from aqueous NaHS solution
[9] = system: mice; details: 81 ppm H2S in the air, cited from earlier work
[10] = released H2S at low concentrations

## S [Hydrogen Sulfide]
[1]
  colonies of bacteria and yeast on agar plates: no growth was evident
[2]
  yeast and/or bacteria from food samples streaked over agar: in no case, any was detected in the experimental group
[2]; Banana, day 8
  yeast growth, loss of consistency, discoloration: These changes are not seen in the Exp group
[2]; H2S 40 ppm, room temperature
  food spoilage and growth of mold and/or bacteria: prevents food spoilage and growth of mold and/or bacteria
[2]; Pistachio, day 8
  discoloration: only moderate change in skin color
[2]; Strawberry, day 5
  yeast growth, loss of consistency, discoloration: These changes are not seen in the Exp group nor any growth of yeast or bacteria is seen
[2]; day 8
  ripening of green tomatoes: still maintains its green un-ripened appearance
[2]; slice of banana, day 8
  yeast growth, loss of consistency, discoloration: These changes are not seen in the Exp group
[3]
  senescence and post-harvest shelf life: senescence was delayed and post-harvest shelf life was prolonged
[4]
  reproduction of suspended animation effects: failed to reproduce these effects
[5]
  induction of hypo-metabolism: failed to show induction of hypo-metabolism
[6]
  food spoilage: prevents food spoilage
[7]
  extent of brain damage caused by experimental stroke: reduce the extent of brain damage
[8]; H2S fumigation
  moldy rate and aging process: decreased the moldy rate, and slowed the aging process
  prolongation of storage time and shelf life versus un-treated controls: 0.5 days to 12
[8]; [10]
  time for development of yellowing, browning and wilting: prolonged the time for development of yellowing, browning and wilting
  water loss: lost less water
[9]; fell from 37° C.
  body temperature: 2 °C above ambient temperature
[9]; sank from 120
  breathing rate: 10 breaths per minute
